Reference: PubChem BioAssay AID624297 (National Center for Advancing Translational Sciences (NCATS), 2012)
The whole screen tested about 340,000 compounds, of which about 6,200 (1.8%) were called active. Inconclusive means that the source gave no clear call. Such entries were picked first, then a sample of the others. Calls follow the shape of the dose curve; as a rule, active = well fitted activation curve with a large enough effect; inconclusive = small, poorly fitted or top-dose-only effect; inactive = no such curve, though single readings can be large or run the other way. A potency beside an inconclusive call is a rough fit, not a confirmed value.

assay: A quantitative high throughput screen for small molecules that induce DNA re-replication in SW480 colon adenocarcinoma cells.; also: nearly all actives have a fitted effect of over 55% in size; as to re-replication activation: % of control where 0% means no effect; settings: Hoechst DNA content imaging, 48 h; re-replication activation: at 46.1 µM (top of the series) unless noted
In short: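 250 cells/well; 23 nL cpd via pin tool; 48 hr, 37 C, 5% CO2; Hoechst 40 min; imager read of total nuclear intensity, ex 405/em 500-530 nm.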
Potency is read from the fitted curve at half-maximal effect.

| SMILES | Potency | re-replication activation |
| --- | --- | --- |
| CCOC(=O)C1=C(COc2ccc(C)cc2)NC(=O)NC1c1cc(C)ccc1C (configuration not stated) | inactive |  |
| CC1Cc2ccccc2N1C(=O)COc1ccc2c(c1)OCO2 (configuration not stated) | inactive |  |
| O=C(Cn1c(NCCO)nc2ccccc21)Nc1ccc2c(c1)OCCCO2 | inactive |  |
| Cc1cc(C)nc(N/N=C/c2ccccc2OCc2ccc(Cl)cc2)n1 | inconclusive: 20.6 µM [activator, single point] |  |
| COc1ccc(-c2noc(CCC(=O)N3CCN(c4ccccc4Cl)CC3)n2)cc1 | inconclusive: 29.1 µM [activator, single point] |  |
| CCOC(=O)[C@H]1[C@H]2COc3ccc(OC)cc3[C@@H]2N2C(=O)CN(CCc3c[nH]c4ccccc34)C(=O)[C@@]12C | inconclusive: 20.6 µM [activator, partial curve, poor fit] |  |
| Cc1ccc(C)c2nc3sc(C(=O)N4CCOCC4)c(N)c3cc12 | inconclusive: 29.1 µM [activator, single point] |  |
| COC(=O)c1cccnc1-n1c(=O)c2cccnc2n(CC(=O)Nc2ccc(Br)cc2)c1=O | inconclusive: 6.51 µM [activator, single point] |  |
| NC(=O)[C@H]1CC2(CC(c3cccc(NC(=O)[C@H]4CCC(=O)N4)c3)=NO2)CN1C(=O)c1cc([N+](=O)[O-])cc([N+](=O)[O-])c1 (some centres not stated) | inconclusive: 0.0046 µM [activator, full curve, poor fit] |  |
| Cc1ccc(C(NC(=O)N2CCCC2)C(Cl)(Cl)Cl)cc1F (configuration not stated) | inconclusive: 20.6 µM [activator, single point] |  |
| COc1ccc(S(=O)(=O)N(Cc2ccccc2)c2ccccc2C(=O)N2CCOCC2)cc1 |  | inconclusive: 63.5% [activator] |
| Cc1cc(C)c2cc(C=O)c(Cl)nc2c1 | inconclusive: 3.26 µM [activator, full curve, poor fit] |  |
| Cc1cnc(C(=O)Oc2cccc(Cl)c2Cl)cn1 | inconclusive: 6.51 µM [activator, single point] |  |
| Cc1cccc(NC(=O)c2ccco2)c1C | inconclusive: 0.231 µM [activator, full curve, poor fit] |  |
| COc1ccc(C(=O)Nc2nc(-c3ccc([N+](=O)[O-])cc3)c(-c3ccc(OC)cc3)s2)cc1 | inactive |  |
| Nc1nnc(CC(=O)N/N=C/c2ccc(-c3cccc(C(=O)O)c3)o2)s1 | inconclusive: 0.231 µM [activator, full curve, poor fit] |  |
| N#Cc1cc2cc3c(cc2nc1NCCNC(=S)NCCCN1CCOCC1)OCO3 | inconclusive: 13 µM [activator, partial curve] |  |
| CCOC(=O)Nc1c(C(=O)OC)[nH]c2cc(OC)ccc12 | inconclusive: 23.1 µM [activator, single point] |  |
| CC(C)C[C@@H](NC(=O)[C@@H](Cc1ccccc1)NC(=O)c1cnccn1)B(O)O | active: 0.0042 µM |  |
| O=c1[nH]cnc2cc(-c3ccc(Br)cc3)sc12 | inactive |  |
| CC1=C(C#N)S(=O)(=O)C(C#N)C(c2ccccc2)C1 (configuration not stated) | inconclusive: 29.1 µM [activator, single point] |  |

| SMILES | Potency | re-replication activation |
| --- | --- | --- |
| Cc1cc(C(=O)CSc2ncn[nH]2)c(C)n1-c1cccc(S(=O)(=O)N2CCOCC2)c1 | inactive |  |
| Cc1nc(NC(=O)/C=C/c2ccccc2)sc1C(=O)Nc1ccc(Cl)cc1 | inconclusive: 29.1 µM [activator, single point] |  |
| CCC(CO)Oc1cc(NCc2ccccc2OC)c2ncn(C(C)C)c2c1 (configuration not stated) | inconclusive: 7.31 µM [activator, partial curve] |  |
| CCOc1ccc(CN(C(=O)c2oc3ccccc3c2C)C2CCS(=O)(=O)C2)cc1 (configuration not stated) | inconclusive: 23.1 µM [activator, single point] |  |
| Cc1ccc2nc(-c3ccc(NC(=O)COC(=O)c4ccc(Br)o4)cc3)sc2c1 | inconclusive: 16.4 µM [activator, single point] |  |
| CCOCCCNC(=O)c1c(N)n(-c2ccc(S(N)(=O)=O)cc2)c2nc3ccccc3nc12 | inconclusive: 1.84 µM [activator, partial curve, poor fit] |  |
| COC(=O)CCC(=O)OC1(C)C(=O)C=C2C=C(C3CC3)N(C3CCCCC3)C=C2C1=O (configuration not stated) | inconclusive: 0.0058 µM [activator, full curve, poor fit] |  |
| COc1ccc(S(=O)(=O)Nc2ccccc2C(N)=O)cc1OC | active: 6.51 µM |  |
| CCC1Sc2ccc(S(=O)(=O)Nc3ccc(OC)cc3)cc2NC1=O (configuration not stated) | inactive |  |
| C/C(=N\OCC(=O)N/N=C/c1ccccc1O)c1cccs1 | inconclusive: 20.6 µM [activator, single point] |  |
| O=C(Nc1ccc(Cl)c([N+](=O)[O-])c1)c1ccc(NCCCN2CCOCC2)c([N+](=O)[O-])c1 | active: 2.91 µM |  |
| O=C(/C=C/c1ccc([N+](=O)[O-])cc1)OCC(=O)N1CCOCC1 | inactive |  |
| CCN(CC)c1ccc(NC(=O)c2ccccc2F)cc1 | active: 18.4 µM |  |
| Cc1ccccc1CN1CCC(N2CCC(C(=O)NCC3CCCO3)CC2)CC1 (configuration not stated) | inconclusive: 7.31 µM [activator, partial curve] |  |
| Cc1ccc2c(c1)=C(c1sc(N(C)c3ccc(O)cc3)nc1O)C(=O)N=2 | inconclusive: 0.411 µM [activator, full curve, poor fit] |  |
| Cc1ccc(-c2nc(C#N)c(NCc3cccc4c3OCO4)o2)cc1 | inconclusive: 29.1 µM [activator, single point] |  |
| C(=C/c1ccnc2nc(SC/C=C/c3ccccc3)nn12)/c1ccccc1 | inconclusive: 14.6 µM [activator, partial curve, poor fit] |  |
| CC(C)(C)NC(=O)Cn1c(SCC(N)=O)nc2ccccc21 | inconclusive: 29.1 µM [activator, single point] |  |
| CCOC(=O)Nc1cc2c(c(N)n1)N=C(c1ccccc1)CN2 | inconclusive: 2.06 µM [activator, partial curve, poor fit] |  |
| O=S(=O)(c1ccc(Cl)cc1)N1c2ccccc2Oc2nc3ccccc3nc21 | inactive |  |
| COc1ccc2c(c1)OC(C)(C)C(c1ccccc1)C2c1ccc(OCCN2CCCC2)cc1 (configuration not stated) | inconclusive: 11.9 µM [activator, single point] |  |

An excerpt of these results, bar-delimited.
SMILES | Potency | re-replication activation
CCC1Sc2ccc(S(=O)(=O)Nc3ccc(OC)cc3)cc2NC1=O (configuration not stated) | inactive | 
C/C(=N\OCC(=O)N/N=C/c1ccccc1O)c1cccs1 | inconclusive: 20.6 µM [activator, single point] | 
O=C(Nc1ccc(Cl)c([N+](=O)[O-])c1)c1ccc(NCCCN2CCOCC2)c([N+](=O)[O-])c1 | active: 2.91 µM | 
O=C(/C=C/c1ccc([N+](=O)[O-])cc1)OCC(=O)N1CCOCC1 | inactive | 
